Test results: patent US20110251229A1 (priority 2007, published 2011)

Sequences of proteins named here, by UniProt entry; tags and fusion partners are left off. Residues count along the entry.
UniProt O00206, 24-839: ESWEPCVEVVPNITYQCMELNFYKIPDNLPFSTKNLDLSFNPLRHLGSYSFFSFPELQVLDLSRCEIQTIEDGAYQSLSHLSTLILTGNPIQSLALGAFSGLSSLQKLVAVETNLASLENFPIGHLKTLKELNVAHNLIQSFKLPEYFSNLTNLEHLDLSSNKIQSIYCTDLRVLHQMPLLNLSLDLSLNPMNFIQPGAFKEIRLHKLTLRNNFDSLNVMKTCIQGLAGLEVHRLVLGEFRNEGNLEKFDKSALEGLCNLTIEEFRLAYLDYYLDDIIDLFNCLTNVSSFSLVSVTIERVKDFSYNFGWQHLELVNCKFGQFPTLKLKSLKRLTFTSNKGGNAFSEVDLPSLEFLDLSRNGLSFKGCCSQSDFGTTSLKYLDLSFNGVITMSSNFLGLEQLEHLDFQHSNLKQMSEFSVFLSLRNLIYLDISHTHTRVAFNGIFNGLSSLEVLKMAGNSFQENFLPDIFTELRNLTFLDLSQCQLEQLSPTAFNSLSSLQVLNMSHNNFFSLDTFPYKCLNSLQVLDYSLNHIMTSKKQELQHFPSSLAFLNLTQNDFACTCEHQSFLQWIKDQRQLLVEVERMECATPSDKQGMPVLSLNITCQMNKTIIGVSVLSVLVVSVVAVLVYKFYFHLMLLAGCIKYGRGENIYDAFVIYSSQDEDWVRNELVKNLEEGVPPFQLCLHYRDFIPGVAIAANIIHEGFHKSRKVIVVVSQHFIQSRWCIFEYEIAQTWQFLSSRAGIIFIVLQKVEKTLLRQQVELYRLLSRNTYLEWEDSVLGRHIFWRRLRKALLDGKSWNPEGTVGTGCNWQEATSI

Key:
[1] = test system: isolated microglial TLR4 mRNA; details: in vitro incubation 2 hr
[2] = target: T1, human TLR4 (Homo sapiens, UniProt O00206); format: cell-based
T1 construct: host or cells: HEK 293

Which “isolated microglial TLR4 mRNA expression” value [1] does the source give for CN1CC[C@]23c4c5ccc(O)c4O[C@H]2[C@@H](O)C=C[C@H]3[C@H]1C5.O=S(=O)(O)O [morphine, (−)-Morphine sulfate] here?
Its value is “dose dependently increased”.

And the TLR4 agonist activity [2]?
The TLR4 agonist activity was “TLR4 agonists”.
